Publication PMC2987844
These are yes or no findings as the source states them, for the method shown. In cells and extracts the contact can be indirect. Some entries that bind do so weakly or less than the wild type. Where a sequence is shown, tags or fusion partners need not be part of it.

The chains behind the UniProt entries cited, without tags or fusion partners. Residues count along the entry.
UniProt P18519, residues 20-416: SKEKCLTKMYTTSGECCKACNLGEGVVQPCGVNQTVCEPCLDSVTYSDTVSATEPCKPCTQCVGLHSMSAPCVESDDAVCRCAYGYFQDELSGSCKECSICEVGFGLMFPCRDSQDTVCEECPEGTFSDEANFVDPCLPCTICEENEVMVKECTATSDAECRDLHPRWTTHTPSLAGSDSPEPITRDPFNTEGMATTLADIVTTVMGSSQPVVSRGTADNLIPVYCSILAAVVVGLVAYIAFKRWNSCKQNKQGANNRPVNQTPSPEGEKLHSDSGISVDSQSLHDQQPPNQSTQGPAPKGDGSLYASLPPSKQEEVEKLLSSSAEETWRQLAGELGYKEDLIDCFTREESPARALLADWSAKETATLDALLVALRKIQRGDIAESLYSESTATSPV

Biological target: T1, ephrinA5^HA (UniProt P52804)
T1 sequence: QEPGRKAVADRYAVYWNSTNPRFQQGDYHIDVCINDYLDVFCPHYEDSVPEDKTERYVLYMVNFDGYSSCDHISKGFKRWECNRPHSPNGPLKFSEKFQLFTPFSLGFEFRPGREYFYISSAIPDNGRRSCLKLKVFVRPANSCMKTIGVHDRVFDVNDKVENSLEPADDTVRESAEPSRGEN
Assay: co-IP; CHO cells co-transfected with p75^(NTR, FLAG) and ephrinA5^HA, serum starved, untreated or treated for 30 minutes with 100 ng/ml NGF, proBDNF or proNGF; lysis in 25 mM Tris pH 7.4, 150 mM NaCl, 1% Triton X100; immunoprecipitation with αHA affinity gel overnight at 4°C; western blot

How did the binding turn out when “p75^(NTR, FLAG) (from UniProt P18519 20-416) (receptor)” was run?
Its binding is “binds”.
